Data from patent publication EP1383510B1, “BISPHOSPHONATE CONJUGATES AND METHODS OF MAKING AND USING THE SAME” (priority 2001, dated 2002).
At least one compound was matched to its structure with a doubt left.

Assay: Binding of novel bisphosphonate conjugates on hydroxyapatite powder (UV spectra before/after treatment)
Conditions: pH 7.0
Description: To estimate the binding of NBC on hydroxyapatite (the mineral component of bone) UV spectra of NBC at pH7 were recorded before and after treatment with hydroxyapatite. […] The supernatant was separated and an absorption spectrum of the supernatant was recorded.

## O=c1[nH]c(=O)n(C2OC(COP(=O)(O)OP(=O)(O)CP(=O)(O)O)C(O)C2O)cc1F (stereo not shown) [III, Anhydride of 5-fluorouridine-5'-monophosphoric acid and methylenediphosphonic acid]
  % of nonbound compound: 29, 95%
